Measurements from patent US8513229B2, “4-Azetidinyl-1-phenyl-cyclohexane antagonists of CCR2” (Janssen Pharmaceutica NV, priority 2009, dated 2013).

How the values were obtained:
cell migration = test: Murine In vivo Cell Migration Assay; settings: 30 mpk, P.O. bid; human MCP-1 on small bowel serosa, 24 hours
Method: Murine In vivo Cell Migration Assay
Animals were orally dosed with vehicle or CCR2 antagonists at 3, 10 and 30 mg/kg bid. Animals underwent anesthesia and laparotomy. A distal loop of small bowel (5 cm in length) was gently eventrated onto moist sterile gauze. Synthetic human MCP-1 (1 mg/100 ml sterile PBS) or PBS alone was administered drop-wise onto the serosa of the eventrated loop. A suture knot was placed into the mesentery to mark the terminus of the treated area. Twenty-four hours later, the animal was sacrificed and the segment of bowel plus the adjacent region was removed. The tissue was opened along the mesenteric border, pinned flat and the mucosa removed. The remaining muscle layer was fixed briefly in 100% EtOH and then stained using Hanker-Yates reagent to detect myeloperoxidase-containing immune cells. At 30 mpk, P.O. bid, a compound is deemed efficacious if the inhibition of cell migration reaches 30% compared with vehicle-treated animals.

[1] = 30 mpk, p.o. bid; high-fat diet obese mice, 40 days treatment

For `O=C(CNC(=O)c1cccc(C(F)(F)F)c1)NC1CN(C2CCC(O)(c3ccccc3)CC2)C1` (centres unmarked) [Example #30, N-{[1-(4-Hydroxy-4-phenyl-cyclohexyl)-azetidin-3-ylcarbamoyl]-methyl}-3-trifluoromethyl-benzamide], the “blocking cell migration (efficacious if the inhibition of cell migration reaches 30% compared with vehicle-treated animals)” value (cell migration) was “efficacious” and the “reduce body weight (percent of weight loss vs vehicle-treated mice)” value [1] was greater than 8%.
